Measurements reported in PubChem BioAssay AID1259424 (University of Nebraska Medical Center, 2018)
Purpose: 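Find knockdowns that reproduce the expression shifts seen after KSR1 loss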 (primary screen). Cells: human HCT116 colon cancer cells. Reagent: siRNA pool against human genes, 50 nM. Read-out: 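Six signature mRNAs by branched-DNA multiplex assay, scaled to two housekeeping genes and non-targeting median, log2; matched to mean KSR1 knockdown profile by Pearson correlation and euclidean distance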. Scale: mean correlation with KSR1 profile: higher = expression change more like KSR1 knockdown; mean distance from KSR1 profile: higher = expression change less like KSR1 knockdown.
Here is a random part of about 14,000 reagents. 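Higher correlation or smaller distance means closer resemblance to KSR1 loss; control wells, including KSR1 knockdowns, recur on many plates.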 Further read-outs or replicates are left out here. Not given: the time to read-out.

SEMA3F (semaphorin 3F) gave mean correlation with KSR1 profile -0.795; mean distance from KSR1 profile 3.19.
RBX1 (ring-box 1) showed mean correlation with KSR1 profile -0.728; mean distance from KSR1 profile 3.85.
Depletion of DLGAP1 (DLG associated protein 1) gave: mean correlation with KSR1 profile -0.544; mean distance from KSR1 profile 3.11.
For SHROOM3 (shroom family member 3) the deposit lists mean correlation with KSR1 profile -0.127; mean distance from KSR1 profile 2.43.
FEZ1 (fasciculation and elongation protein zeta 1) scored mean correlation with KSR1 profile -0.449; mean distance from KSR1 profile 2.72.
EDNRB (endothelin receptor type B) showed mean correlation with KSR1 profile 0.649; mean distance from KSR1 profile 1.49.
Against TASL (TLR adaptor interacting with endolysosomal SLC15A4) the deposit lists mean correlation with KSR1 profile 0.411; mean distance from KSR1 profile 1.6.

In a second layout: entries from further up.
EDNRB (endothelin receptor type B)
- mean correlation with KSR1 profile: 0.649
- mean distance from KSR1 profile: 1.49

TASL (TLR adaptor interacting with endolysosomal SLC15A4)
- mean correlation with KSR1 profile: 0.411
- mean distance from KSR1 profile: 1.6

The list goes on.
CHMP1B (charged multivesicular body protein 1B) showed mean correlation with KSR1 profile -0.476; mean distance from KSR1 profile 1.92.
NXPE4 (neurexophilin and PC-esterase domain family member 4) scored mean correlation with KSR1 profile -0.395; mean distance from KSR1 profile 1.84.
For SIGLEC6 (sialic acid binding Ig like lectin 6), the entry reads mean correlation with KSR1 profile -0.215; mean distance from KSR1 profile 2.08.
After knock-down of GUSB (glucuronidase beta), the screen gave mean correlation with KSR1 profile -0.0851; mean distance from KSR1 profile 2.87.
Depletion of RABIF (RAB interacting factor) resulted in: mean correlation with KSR1 profile 0.531; mean distance from KSR1 profile 1.55.
With knock-down of SGCD (sarcoglycan delta), the record shows mean correlation with KSR1 profile -0.317; mean distance from KSR1 profile 2.62.
TFCP2 (transcription factor CP2) showed mean correlation with KSR1 profile -0.242; mean distance from KSR1 profile 2.39.
After knock-down of KLC3 (kinesin light chain 3), the record shows mean correlation with KSR1 profile -0.612; mean distance from KSR1 profile 3.18.
Knock-down of NR2F2 (nuclear receptor subfamily 2 group F member 2) gave: mean correlation with KSR1 profile -0.195; mean distance from KSR1 profile 3.1.
Depletion of PSMD1 (proteasome 26S subunit, non-ATPase 1) resulted in: mean correlation with KSR1 profile -0.138; mean distance from KSR1 profile 4.31.
Knock-down of BBS1 (Bardet-Biedl syndrome 1) came out at: mean correlation with KSR1 profile -0.228; mean distance from KSR1 profile 2.03.
After knock-down of ALG12 (ALG12 alpha-1,6-mannosyltransferase), the record shows mean correlation with KSR1 profile -0.0571; mean distance from KSR1 profile 1.77.
